# Reference: patent US7335505B2, “Materials and methods relating to protein aggregation in neurodegenerative disease” (Wista Laboratories Ltd., priority 2001, dated 2008)
# At least one structure is not confirmed: it was looked up by name or label, or the drawing left a doubt.
# Test: Extent of reduction of diaminophenothiazines by DTT or ascorbic acid
# Format: physicochemical
# Settings: approx. 500:1 DTT excess, at 120 minutes
compound,measurement,value
Cc1cc2nc3ccc(N(C)C)cc3[s+]c2cc1N [tolonium chloride],extent of reduction,reduced at an intermediate level
